Source: patent US20260079169A1, “VOLATILE ORGANIC COMPOUNDS AS MARKERS FOR CELLULAR COMMUNICATION” (Technion Research and Development Foundation Limited, priority 2020, published 2026)

Assays:
[1] = system: A549, H1299, H1975 human lung cancer lines and BEAS-2B normal cell line, each cultured alone; assay: VOCs headspace analysis (ITEX GC-MS) of mono-culture groups (Format-1), bulk cell samples 1×10^4 cells; type: cell-based; details: bulk 1 × 10^4 cell
[2] = system: different-cell pairs of BEAS-2B, A549, H1299, H1975 without physical contact under a mutual headspace; assay: VOCs headspace analysis (ITEX GC-MS) of different-cell pair co-culture headspace groups (Format-3), bulk cell samples; type: cell-based, human; details: bulk 1 × 10^4 cell

Row | Compound | VOC level in headspace, area under curve (AUC) normalized by STD AUC ([1]; A (BEAS-2B) mono-culture) | VOC level in headspace, area under curve (AUC) normalized by STD AUC ([1]; B (A549) mono-culture) | VOC level in headspace, area under curve (AUC) normalized by STD AUC ([1]; C (H1299) mono-culture) | VOC level in headspace, area under curve (AUC) normalized by STD AUC ([1]; D (H1975) mono-culture) | VOC level in headspace, area under curve (AUC) normalized by STD AUC ([2]; A + B (BEAS-2B + A549)) | VOC level in headspace, area under curve (AUC) normalized by STD AUC ([2]; A + C (BEAS-2B + H1299)) | VOC level in headspace, area under curve (AUC) normalized by STD AUC ([2]; A + D (BEAS-2B + H1975)) | VOC level in headspace, area under curve (AUC) normalized by STD AUC ([2]; B + C (A549 + H1299)) | VOC level in headspace, area under curve (AUC) normalized by STD AUC ([2]; B + D (A549 + H1975)) | VOC level in headspace, area under curve (AUC) normalized by STD AUC ([2]; C + D (H1299 + H1975))
1 | C=CCOCCCC [VOC53] | 7.074 | 0 | 0 | 5.846 | 2.506 | 0 | 0 | 0 | 0 | 0.5618
2 | c1ccccc1 [VOC54] | 0 | 2.326 | 2.326 | 1.377 | 4.067 | 1.812 | 2.275 | 0 | 0 | 6.241
3 | CCCCC(CC)CO (stereo not drawn) [VOC55] | 7.062 | 0 | 0 | 0 | 3.414 | 2.624 | 0 | 0 | 0 | 0
4 | CC(=O)CCOC(C)C [VOC56] | 0 | 0 | 0 | 6.66 | 0 | 0 | 3.587 | 0 | 1.635 | 0
5 | C#CF [VOC57] | 0 | 0 | 0 | 7.581 | 0 | 0 | 4.011 | 0 | 0 | 1.85
6 | O=C(O)CO [VOC58] | 0 | 6.95 | 8.49 | 0 | 1.771 | 3.826 | 0 | 8.161 | 0 | 0
7 | COC [VOC59] | 5.451 | 5.822 | 0 | 0 | 7.869 | 2.242 | 0 | 1.04 | 0 | 0
8 | CCCCCC(C)CCC(C)CC (stereo not drawn) [VOC60] | 0 |  | 7.5739 | 5.675 | 0 | 3.113 | 0 | 2.263 | 0 | 7.462
9 | CC(C)(C)c1ccc(C(C)(C)C)c(O)c1 [VOC61] | 5.058 | 6.818 | 0 | 0 | 3.194 | 4.011 | 3.337 | 0 | 0 | 0
10 | Cc1ccc(CO)cc1 [VOC62] | 3.841 | 3.718 | 0 | 3.213 | 0 | 0 | 3.442 | 0 | 1.475 | 0
11 | CCCCC(=O)C(=O)CCCC [VOC63] | 0 | 0 | 5.0214 | 0 | 0 | 3.744 | 0 | 1.929 | 0 | 0
12 | CCCCCCCCCCCCCCC(C)C [VOC64] | 0 | 0 | 6.3364 | 7.301 | 0 | 2.915 | 0 | 1.031 | 0 | 9.273
13 | CCCCC(CC)COC(=O)c1ccccc1 (stereo not drawn) [VOC65] | 0 | 0 | 5.1791 | 4.418 | 0 | 5.138 | 2.112 | 1.589 | 0.7462 | 7.483
14 | C=CCOCCC [VOC66] | 5.989 | 0 | 10.089 | 0 | 6.616 | 4.601 | 0 | 1.264 | 0.9916 | 0
15 | CC=COCC [VOC67] | 5.011 | 0 | 6.8723 | 0 | 2.156 | 4.955 | 0 | 1.423 | 0 | 1.116
16 | CCC(C)(C)CC [VOC68] | 0 | 0 | 6.6243 | 0 | 0 | 2.818 | 0 | 1.004 | 0 | 1.905
